From publication PMC4807768
These are yes or no findings as the source states them, for the method shown. In cells and extracts the contact can be indirect. Where a sequence is shown, tags or fusion partners need not be part of it.

Amino acid sequences for entries named in this document (tags omitted).
UniProt Q39057: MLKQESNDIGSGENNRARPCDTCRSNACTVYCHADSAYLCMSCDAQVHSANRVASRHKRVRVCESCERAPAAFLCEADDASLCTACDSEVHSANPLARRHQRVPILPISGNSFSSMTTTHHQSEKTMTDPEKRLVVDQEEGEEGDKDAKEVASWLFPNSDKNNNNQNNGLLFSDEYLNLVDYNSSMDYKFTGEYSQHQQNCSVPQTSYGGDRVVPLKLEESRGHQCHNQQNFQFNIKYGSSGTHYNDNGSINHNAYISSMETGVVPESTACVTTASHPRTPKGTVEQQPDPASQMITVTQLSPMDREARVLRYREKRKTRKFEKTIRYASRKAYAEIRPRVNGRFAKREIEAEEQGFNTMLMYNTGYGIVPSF

T1: GST-ZPR3 (UniProt Q9LXI8)
T1 sequence: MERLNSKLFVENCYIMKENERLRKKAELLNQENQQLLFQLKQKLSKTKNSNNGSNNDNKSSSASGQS


Tests used:
GST-ZPR3 = molecular target: T1, GST-ZPR3; assay: pull-down; E. coli cell extracts of MBP-CO and HIS-TPL mixed with GST-miP1a, GST-miP1aΔPFVFL or GST-ZPR3; GST fusions held on anti-GST magnetic beads; HIS-TPL and MBP-CO detected by immunoblotting
[1] = molecular target: MBP-CO (Arabidopsis thaliana) (UniProt Q39057); assay: pull-down; soluble protein fractions of E. coli BL21 lysates mixed; MBP-CO held on amylose-coated magnetic beads; GST fusions detected by immunoblotting

Row | binding (GST-ZPR3) | binding [1] | Molecule
1 | no binding | – | MBP-CO (from UniProt Q39057 1-373)
2 | – | no binding | GST-ZPR3 (protein, UniProt Q9LXI8 1-67) MERLNSKLFVENCYIMKENERLRKKAELLNQENQQLLFQLKQKLSKTKNSNNGSNNDNKSSSASGQS
3 | no binding | – | HIS-TPL (protein, UniProt Q94AI7 1-1131) MSSLSRELVFLILQFLDEEKFKETVHKLEQESGFFFNMKYFEDEVHNGNWDEVEKYLSGFTKVDDNRYSMKIFFEIRKQKYLEALDKHDRPKAVDILVKDLKVFSTFNEELFKEITQLLTLENFRENEQLSKYGDTKSARAIMLVELKKLIEANPLFRDKLQFPTLRNSRLRTLINQSLNWQHQLCKNPRPNPDIKTLFVDHSCGPPNGARAPSPVNNPLLGGIPKAGGFPPLGAHGPFQPTASPVPTPLAGWMSSPSSVPHPAVSAGAIALGGPSIPAALKHPRTPPTNASLDYPSADSEHVSKRTRPMGISDEVNLGVNMLPMSFSGQAHGHSPAFKAPDDLPKTVARTLSQGSSPMSMDFHPIKQTLLLVGTNVGDIGLWEVGSRERLVQKTFKVWDLSKCSMPLQAALVKEPVVSVNRVIWSPDGSLFGVAYSRHIVQLYSYHGGEDMRQHLEIDAHVGGVNDISFSTPNKQLCVITCGDDKTIKVWDAATGVKRHTFEGHEAPVYSVCPHYKENIQFIFSTALDGKIKAWLYDNMGSRVDYDAPGRWCTTMAYSADGTRLFSCGTSKDGESFIVEWNESEGAVKRTYQGFHKRSLGVVQFDTTKNRYLAAGDDFSIKFWDMDAVQLLTAIDGDGGLQASPRIRFNKEGSLLAVSGNENVIKIMANSDGLRLLHTFENISSESSKPAINSIAAAAAAAATSAGHADRSANVVSIQGMNGDSRNMVDVKPVITEESNDKSKIWKLTEVSEPSQCRSLRLPENLRVAKISRLIFTNSGNAILALASNAIHLLWKWQRNERNATGKATASLPPQQWQPASGILMTNDVAETNPEEAVPCFALSKNDSYVMSASGGKISLFNMMTFKTMATFMPPPPAATFLAFHPQDNNIIAIGMDDSTIQIYNVRVDEVKSKLKGHSKRITGLAFSNVLNVLVSSGADAQLCVWNTDGWEKQRSKVLPLPQGRPNSAPSDTRVQFHQDQAHFLVVHETQLAIYETTKLECMKQWAVRESLAPITHATFSCDSQLVYASFMDATVCVFSSANLRLRCRVNPSAYLPASLSNSNVHPLVIAAHPQEPNMFAVGLSDGGVHIFEPLESEGKWGVAPPAENGSASGAPTAPSVGASASDQPQR
